Laboratory results published in PMC7819943, “Rice protein-binding microarrays: a tool to detect cis-acting elements near promoter regions in rice”.
The list shows a part of the results.

Chains of the proteins cited; added tags and fusions are not shown.
UniProt Q0JBA9, entry or part of it: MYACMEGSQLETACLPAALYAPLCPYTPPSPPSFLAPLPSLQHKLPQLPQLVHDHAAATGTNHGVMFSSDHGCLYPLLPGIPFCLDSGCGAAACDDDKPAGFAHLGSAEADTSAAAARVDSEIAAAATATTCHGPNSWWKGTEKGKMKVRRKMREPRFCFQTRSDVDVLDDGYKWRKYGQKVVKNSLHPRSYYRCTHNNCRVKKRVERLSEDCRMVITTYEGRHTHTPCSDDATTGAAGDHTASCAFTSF

target: OsWRKY34 (Oryza sativa, UniProt Q0JBA9 1-250); assay: protein-binding microarray (RPBM); PBS, 2% BSA, 51.3 ng/ul salmon testes DNA, 50 uM zinc acetate, 200 nM TF, 25 C, 1 h; high values mean tight binding; conditions: protein: recombinant; tags: N-terminal polyhistidine and DsRed monomer fusion (pET32a); label: CyDye5-dUTP incorporated in the synthesized complementary strand; 3' TTTTT single-stranded linker to array surface; dsDNA, one strand shown
Method in brief: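 Polyhistidine-tagged DsRed fusions of transcription factors, joined at the N-terminus, were expressed in E. coli BL21-CodonPlus and isolated on Ni–NTA. They were incubated at 200 nM for 1 h at 25 °C on a custom Agilent array, double-stranded and BSA-blocked, in PBS with 2% BSA, salmon testes DNA and 50 µM zinc acetate. The binding signal is per-feature fluorescence intensity (arbitrary units) read on an Axon 4000B scanner after washing.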

Sequence	binding signal
AGTGTAGGATTTTAATTCCTTTATTTTTCCTCCATTATTCCGGAGTCACCTAGTGCAG	8250 fluorescence intensity (a.u.)
AGCTTTGTTGTTTCTTGCACCGATCGTCGTTTTACTCGTGCGGAGTCACCTAGTGCAG	15000 fluorescence intensity (a.u.)
TCCATTTCCCGCCGCCTCCCCTCTCGCGATCCATATCCATCGGAGTCACCTAGTGCAG	8050 fluorescence intensity (a.u.)
CTATTGTTGTCTGTTTCTATCATTCAGCTGCGGGCCCAGGCGGAGTCACCTAGTGCAG	8940 fluorescence intensity (a.u.)
CCGCACGGGCACCACCTCGCCGCCCGCCACCACCGCTTCCCGGAGTCACCTAGTGCAG	10800 fluorescence intensity (a.u.)
AGAAAGTTTCCTTTGATTTTTTTTGGTGCAACCTTTTTTCCGGAGTCACCTAGTGCAG	8040 fluorescence intensity (a.u.)
GCCCATAACCCACCACGCGTCTCTTCAAATTTCCGCCCCTCGGAGTCACCTAGTGCAG	9290 fluorescence intensity (a.u.)
ATTTTGAGTTTTTGCTTGCATTGTTTGATCACTCGTCTTACGGAGTCACCTAGTGCAG	9530 fluorescence intensity (a.u.)
TTGACCTTTTCTTTGTTGAACGTTGACCGTTCCGTCTTATCGGAGTCACCTAGTGCAG	14300 fluorescence intensity (a.u.)
CGACGCCGCCACCGTCCACTCCGCCGCCGCCATCGTCCTCCGGAGTCACCTAGTGCAG	10300 fluorescence intensity (a.u.)
CTCGCTCTCCCACTCGCACCTGCGCCGCATCCCCAATCCCCGGAGTCACCTAGTGCAG	8750 fluorescence intensity (a.u.)
TCGACCTTCCTTTCCTGTCGCCATCTTCACCGTCTTGCCACGGAGTCACCTAGTGCAG	9710 fluorescence intensity (a.u.)
CTTGAGTCTTCAGTTTGTTATTTTTCAGTTTCGATTCTCACGGAGTCACCTAGTGCAG	10500 fluorescence intensity (a.u.)
TTGTACTACTTATGAACCGTTAATCCACTGTCCTGTATGTCGGAGTCACCTAGTGCAG	9380 fluorescence intensity (a.u.)
TCGCCCCAAATCCTCACGCCCGGTCATGAAATTGTATCCACGGAGTCACCTAGTGCAG	10000 fluorescence intensity (a.u.)
TCCTTGGTCTGTGTGTCAAGATGAAATATGACTATCAAAACGGAGTCACCTAGTGCAG	8900 fluorescence intensity (a.u.)
GTCCCCTACCAATAGCCACATTATTTGACTGGACTATAAACGGAGTCACCTAGTGCAG	8190 fluorescence intensity (a.u.)
ACCTTCCTAGTTCTTCCCACACGTTCGTTACTCCAGCACCCGGAGTCACCTAGTGCAG	10500 fluorescence intensity (a.u.)
GGTAAACTCTATTTTTTAGCCCTTATATGTTATTTTTAATCGGAGTCACCTAGTGCAG	8090 fluorescence intensity (a.u.)
GCCGTATCATATCCATGACCTTTGTCCTTGCGTTGCCGCCCGGAGTCACCTAGTGCAG	10700 fluorescence intensity (a.u.)
GGGCGCCTCTCTGTCAGTTTCTCCACTACACTGTGCGCGTCGGAGTCACCTAGTGCAG	9940 fluorescence intensity (a.u.)

Some of the entries so far, with bars between the fields:
Sequence | binding signal
CCGCACGGGCACCACCTCGCCGCCCGCCACCACCGCTTCCCGGAGTCACCTAGTGCAG | 10800 fluorescence intensity (a.u.)
TCCTTGGTCTGTGTGTCAAGATGAAATATGACTATCAAAACGGAGTCACCTAGTGCAG | 8900 fluorescence intensity (a.u.)

Further entries:

Sequence	binding signal
GCTTCCAATGGATGTCTTCCTTTCCTGAGCTGCTGTCTCCCGGAGTCACCTAGTGCAG	8680 fluorescence intensity (a.u.)
CATTTCCGTTTTCATTTCCATATTTTTTACCATTTCCATTCGGAGTCACCTAGTGCAG	10000 fluorescence intensity (a.u.)
GGTTTCCGTGTCTAACTTTAACTGTCCGTCTTATATGAAACGGAGTCACCTAGTGCAG	11000 fluorescence intensity (a.u.)
TATTGAGTGTATCCATCATAGATTTTATGTTTCATATTTTCGGAGTCACCTAGTGCAG	8820 fluorescence intensity (a.u.)
GAGTCACACAAAGCCTGGCCTTTTTGCGTTGCGCAACCCGCGGAGTCACCTAGTGCAG	8490 fluorescence intensity (a.u.)
CGCTGCTCGCCCTGTGCCTCATTCCGCCTTGACAAATGTCCGGAGTCACCTAGTGCAG	12400 fluorescence intensity (a.u.)
GTGCTCATCCGCCTCCTCGGGTCGTCTCCATCGACCTCCTCGGAGTCACCTAGTGCAG	9120 fluorescence intensity (a.u.)
ACAGTCAACCGAAATATTTGACTGTCCAATTTTTATTACACGGAGTCACCTAGTGCAG	10000 fluorescence intensity (a.u.)
TGCATTTTTTATTGTTATCGATCTTTTATTTTTTACTGAACGGAGTCACCTAGTGCAG	9270 fluorescence intensity (a.u.)
ATTTACCAGATTTGGGCTGCAATTATTGGGCGCCATTTTTCGGAGTCACCTAGTGCAG	8890 fluorescence intensity (a.u.)
GGTGTAGGGTTTTAGTTTACGAGATATATTTACGAATTTGCGGAGTCACCTAGTGCAG	10500 fluorescence intensity (a.u.)
CTCCGCCATCCACTCCCACTACTCTACCATCGTGCGCGCGCGGAGTCACCTAGTGCAG	9830 fluorescence intensity (a.u.)
CCTCCATCTATGTCCTGCTGTCCAACATCTACGCGGATGCCGGAGTCACCTAGTGCAG	9400 fluorescence intensity (a.u.)
CACGGTCCTGCTCGCCCTGTCCAGTCACGTTCAATCTTTTCGGAGTCACCTAGTGCAG	13600 fluorescence intensity (a.u.)
TCGCTAGCGCAATCGCCTCGTCGGTATCGACCTTTTTTTTCGGAGTCACCTAGTGCAG	9230 fluorescence intensity (a.u.)
CTTGCCTCTGTCTCTTTTACCTCAGTTTCGCGTATATCCTCGGAGTCACCTAGTGCAG	8530 fluorescence intensity (a.u.)
GTTTACCTGATGGCACTCTCTGTATACCCCTGTGGAATTGCGGAGTCACCTAGTGCAG	8100 fluorescence intensity (a.u.)
GTTTTGGTGACTTTTCCATTTCGAATCATTTATTAACCTCCGGAGTCACCTAGTGCAG	8180 fluorescence intensity (a.u.)
TTGAGCCTTAGAGTTGGACAGGTTATTGCAGCTGTTCTTGCGGAGTCACCTAGTGCAG	8550 fluorescence intensity (a.u.)
TATACCATTGAATGCTCACCGGTTTCCTCATATGCCCTTGCGGAGTCACCTAGTGCAG	8530 fluorescence intensity (a.u.)
TGTTCTCCATTTTTGCAATTTATATCATGATATTTTTTTTCGGAGTCACCTAGTGCAG	9960 fluorescence intensity (a.u.)
